Data published in PMC8909987.
These are yes or no findings as the source states them, for the method shown. Binding can be weak; no strength is given. For part of these data: Binding seen in cells or lysates may run through a third protein.

Protein sequences, listed by entry. Tags and fused reporters are not part of them. Lines headed by an entry give the natural chain unless they say otherwise; changes in a name come on top. Residues count along the entry.
UniProt O53281: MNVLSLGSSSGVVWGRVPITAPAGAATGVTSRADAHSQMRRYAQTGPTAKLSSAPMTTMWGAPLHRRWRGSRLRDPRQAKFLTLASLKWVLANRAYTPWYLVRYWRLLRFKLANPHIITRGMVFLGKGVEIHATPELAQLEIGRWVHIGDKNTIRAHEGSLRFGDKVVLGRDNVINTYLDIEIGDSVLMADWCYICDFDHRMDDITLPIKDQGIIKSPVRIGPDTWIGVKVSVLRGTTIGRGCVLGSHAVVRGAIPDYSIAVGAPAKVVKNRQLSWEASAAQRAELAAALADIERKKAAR
UniProt Q61830, residues 20-1456: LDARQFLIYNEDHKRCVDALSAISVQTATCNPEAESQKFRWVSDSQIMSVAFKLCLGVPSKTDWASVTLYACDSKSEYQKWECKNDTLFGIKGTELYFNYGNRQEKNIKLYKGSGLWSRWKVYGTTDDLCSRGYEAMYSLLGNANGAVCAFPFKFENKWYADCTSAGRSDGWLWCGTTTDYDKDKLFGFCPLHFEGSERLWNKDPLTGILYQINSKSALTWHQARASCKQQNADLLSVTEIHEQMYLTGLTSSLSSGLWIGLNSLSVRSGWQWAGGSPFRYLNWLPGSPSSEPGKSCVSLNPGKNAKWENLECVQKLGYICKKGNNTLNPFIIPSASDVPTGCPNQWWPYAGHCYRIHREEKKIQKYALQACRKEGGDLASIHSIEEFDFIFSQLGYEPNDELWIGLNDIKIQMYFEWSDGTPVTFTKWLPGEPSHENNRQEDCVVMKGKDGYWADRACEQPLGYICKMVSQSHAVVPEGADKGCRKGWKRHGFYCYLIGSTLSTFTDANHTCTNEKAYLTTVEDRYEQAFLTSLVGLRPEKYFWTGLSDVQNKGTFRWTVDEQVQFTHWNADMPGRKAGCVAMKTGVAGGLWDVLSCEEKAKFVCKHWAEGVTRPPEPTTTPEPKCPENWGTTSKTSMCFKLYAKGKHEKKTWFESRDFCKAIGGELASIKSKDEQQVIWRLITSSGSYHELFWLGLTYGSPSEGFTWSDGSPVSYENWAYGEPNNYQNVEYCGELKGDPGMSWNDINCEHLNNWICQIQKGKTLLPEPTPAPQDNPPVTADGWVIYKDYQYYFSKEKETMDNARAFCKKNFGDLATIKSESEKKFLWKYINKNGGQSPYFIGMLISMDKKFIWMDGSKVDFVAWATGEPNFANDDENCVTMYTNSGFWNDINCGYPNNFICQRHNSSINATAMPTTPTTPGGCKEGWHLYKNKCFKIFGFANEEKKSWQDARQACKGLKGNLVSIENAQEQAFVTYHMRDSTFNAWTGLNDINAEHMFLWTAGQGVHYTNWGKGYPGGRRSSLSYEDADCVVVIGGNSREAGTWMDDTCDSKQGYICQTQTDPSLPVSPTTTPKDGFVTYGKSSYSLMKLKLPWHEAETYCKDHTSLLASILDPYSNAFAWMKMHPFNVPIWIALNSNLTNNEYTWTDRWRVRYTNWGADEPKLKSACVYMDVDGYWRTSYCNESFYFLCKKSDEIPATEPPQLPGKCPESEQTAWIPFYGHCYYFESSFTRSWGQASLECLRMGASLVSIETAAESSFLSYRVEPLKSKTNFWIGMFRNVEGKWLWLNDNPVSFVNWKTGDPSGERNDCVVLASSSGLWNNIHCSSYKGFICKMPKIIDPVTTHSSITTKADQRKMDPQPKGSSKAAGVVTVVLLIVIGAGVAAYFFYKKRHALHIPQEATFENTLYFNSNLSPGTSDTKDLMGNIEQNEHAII

Tests used:
[1] = molecular target: Mycobacterium tuberculosis acetyltransferase Rv3034c, His-tagged recombinant protein (Mycobacterium tuberculosis H37Rv) (UniProt O53281); experiment: co-incubation, SDS-PAGE and Western blot; only the target purified
[2] = molecular target: Mycobacterium tuberculosis acetyltransferase Rv3034c, His-tagged recombinant protein (Mycobacterium tuberculosis H37Rv) (UniProt O53281); experiment: native gel or EMSA; only the target purified
[3] = molecular target: Mycobacterium tuberculosis acetyltransferase Rv3034c, His-tagged recombinant protein (Mycobacterium tuberculosis H37Rv) (UniProt O53281); experiment: pull-down; only the target purified

Measured: binding

macrophage mannose receptor (MR) (from UniProt Q61830 20-1456)
binds: all assays above
